# Reference: PubChem BioAssay AID2685 (National Center for Advancing Translational Sciences (NCATS), 2010)
# Some of the results follow. The main result of the screen is listed elsewhere. These columns were measured beside it and carry no call. Most of these compounds were active or inconclusive in the main read-out, so they are no random draw. Words in brackets tell the shape of the fitted curve; partial curves, single points and poor fits give uncertain potencies.
# Test: qHTS Assay for Lipid Storage Modulators in Drosophila S3 Cells;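 for cell number change: cells counted by Cell Tracker Red CMTPX staining in the red channel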
# Settings: BODIPY lipid droplet fluorescence, 18-24 h; for cell number change: measured here: cell count max response, cells fed with added oleic acid
# Procedure, shortened: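 Drosophila S3 cells got compounds at several concentrations plus oleic acid (400 uM solution). Laser-scanning cytometry with 488 nm excitation read lipid droplets at 500-530 nm and cells at 575-640 nm. Percent activity was relative to 20 uM Triacsin C.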
# [1] = measured here: cell number channel AC50, cells fed with added oleic acid
# [2] = measured here: lipid fluorescence (Fed channel) AC50, cells fed with added oleic acid
SMILES,cell number change,AC50 [1],AC50 [2]
Cc1cccc(CSc2nnnn2-c2ccccc2)c1,83.1%,"2.31 µM [rising, full curve]","3.26 µM [rising, partial curve, poor fit]"
O=C(NCC1COc2ccccc2O1)c1cccs1 (stereo not given),13.1%,–,–
Cc1[nH]c2c(C(=O)N3CCCC(CCC(=O)NCc4ccccc4F)C3)cccc2c1C (stereo not given),-13.2%,–,"29.1 µM [falling, single point]"
Cc1ccc2c(C)nc(/N=C(\N)NC(=O)N3c4ccccc4Sc4ccccc43)nc2c1,–,"1.16 µM [rising, partial curve]","0.411 µM [rising, full curve]"
CC(C)c1ccc(NC(=S)NC2CCN(Cc3ccccc3)CC2)cc1,-22.4%,–,"29.1 µM [falling, single point]"
Cc1nc(CCNS(=O)(=O)c2cccs2)cs1,20.3%,–,"29.1 µM [falling, single point]"
Cn1cc(Cl)c(C(=O)Nc2cccc(Cl)c2Cl)n1,64.7%,"29.1 µM [rising, single point]",–
CCCCOc1ccc(/C(O)=C2/C(=O)C(=O)N(CCCOC)C2c2ccncc2)cc1 (stereo not given),38.6%,"29.1 µM [rising, single point]",–
CCOC(=O)c1sc2nc(CC(=O)OC)nc(NCc3ccc(F)cc3)c2c1C,-12.4%,–,"23.1 µM [falling, single point]"
Cc1ccc(NC(=O)CSc2nnc(Cc3ccccc3)o2)c(C)c1,24.7%,–,"18.4 µM [rising, single point]"
COc1ccc(-c2nn(-c3ccccc3)cc2C(=O)Nc2ccc(C(=O)O)cc2)cc1,2.14%,–,"32.6 µM [falling, single point]"
CCC1Oc2ccccc2N(CC(=O)N2CCOCC2)C1=O (stereo not given),34.7%,–,"0.291 µM [rising, partial curve, poor fit]"
C/C(=N/NC(=O)CNC(=O)c1ccncc1)c1ccco1,-0.13%,–,"0.184 µM [falling, full curve, poor fit]"
Cc1cccc(C)c1NC(=O)CSc1nnc(-c2ccccc2)n1Cc1ccc2c(c1)OCO2,-3.33%,"6.51 µM [falling, single point]",–
O=C(COC(=O)CCC(=O)c1ccc(F)cc1)Nc1nnc(-c2ccccc2)o1,-5.72%,"0.146 µM [falling, full curve, poor fit]",–
CC(C)OC(=O)c1c2c(n3ccccc13)C(=O)c1ccccc1C2=O,-59.7%,"11.6 µM [falling, partial curve]","2.91 µM [falling, full curve]"
O=C(CCCN1C(=O)c2ccccc2C1=O)N1CCc2ccccc2C1,–,"2.91 µM [rising, single point]","4.11 µM [rising, single point]"
COc1ccc(C2N=C(N)N=C(N)N2c2ccc(C)cc2)cc1 (stereo not given),-33.9%,"1.46 µM [falling, partial curve, poor fit]","4.61 µM [falling, partial curve]"
COc1ccc(C2(C)NC(=O)N(CC(=O)c3cc(C)n(C4CC4)c3C)C2=O)cc1OC (stereo not given),7.67%,–,"0.146 µM [rising, full curve, poor fit]"
CCCOc1ccc(/C(O)=C2/C(=O)C(=O)N(CCN(CC)CC)C2c2ccncc2)cc1 (stereo not given),4.53%,–,"2.91 µM [falling, single point]"

# Individual results from the results shown:
# Entry for Cc1cccc(CSc2nnnn2-c2ccccc2)c1 under AC50 [1]: 2.31 µM [rising, full curve]
# Entry for COc1ccc(-c2nn(-c3ccccc3)cc2C(=O)Nc2ccc(C(=O)O)cc2)cc1 under AC50 [2]: 32.6 µM [falling, single point]

# (cont.)

SMILES,cell number change,AC50 [1],AC50 [2]
O=C(O)CNC1=NCCC1,-1.31%,–,–
COC(=O)c1[nH]c2cc(C)ccc2c1NC(=O)CN1CCc2cc(OC)c(OC)cc2C1,–,"2.91 µM [rising, partial curve]","0.651 µM [rising, partial curve]"
C=CCn1c(SCc2cc(C(C)=O)ccc2OCC)nc2ccccc2c1=O,8.71%,–,"2.91 µM [falling, single point]"
O=S(=O)(Nc1ccc2c(c1)nc1n2CCN(Cc2ccccc2)C1)c1ccc(Cl)cc1,-30.3%,"7.31 µM [falling, partial curve, poor fit]",–
O=S(=O)(c1ccc(F)cc1)N1CCN(c2ccc(-c3ccccc3)nn2)CC1,9.51%,"6.51 µM [rising, single point]","6.51 µM [rising, single point]"
CC(=O)Nc1nc2ccc(C(=O)NC3CCCCC3)cc2s1,-29.4%,–,"25.9 µM [falling, partial curve]"
CCN(CC)CCNC(=O)c1cc2c(-c3ccc(Cl)cc3)nn(C)c2s1,13.2%,"0.231 µM [rising, full curve, poor fit]",–
Cc1cc2c(nc1C)CCCN2C[C@@H](C)O/N=C1/[C@H]2CCn3c(=O)n(-c4ccccc4)c(=O)n3[C@H]2[C@H](O)[C@@H]2O[C@H]12,14.6%,–,"9.2 µM [rising, partial curve]"
CCCCN(C(=O)CSc1nc2ccccc2n1CC)C1CCS(=O)(=O)C1 (stereo not given),-14.9%,–,"0.103 µM [falling, full curve, poor fit]"
CCOCCCn1c(=S)[nH]c2cc3c(cc2c1=O)OCO3,–,"2.59 µM [rising, partial curve]","2.06 µM [rising, partial curve]"
CCCC(=O)Nc1ccc2c(c1)nc(CCNC(=O)c1ccccc1)n2C,4.88%,–,"4.61 µM [rising, full curve, poor fit]"
COc1ccccc1NC(=O)OC(C)c1ccc(Cl)cc1 (stereo not given),13.7%,–,"20.6 µM [rising, single point]"
CCOC(=O)c1sc(NC(=O)C2CC2)nc1C,0.647%,–,"3.66 µM [rising, single point]"
CCc1cc(CC)c(/C=N/NC(N)=O)c(CC)c1,-26.1%,–,"29.1 µM [falling, single point]"
O=C(N/N=C/C=C/c1ccc([N+](=O)[O-])cc1)c1cccs1,-5.38%,–,–
CN(C)CCn1c(=S)[nH]c2ccccc2c1=O,20.1%,–,"0.58 µM [falling, single point]"
CN(CC(=O)Nc1ccccc1Cl)C(=O)COC(=O)/C=C/c1ccccc1,21%,–,–
COc1cccc(C(=O)NCCNC(=O)c2ccccn2)c1,-28.9%,"0.00411 µM [falling, full curve, poor fit]","5.62 µM [falling, single point]"
COc1ccc(/C=N/NC(=O)c2cc[n+]([O-])cc2)cc1,16.9%,–,"29.1 µM [falling, single point]"
O=C(C1=NN(c2ccccc2)C2C(=O)N(c3ccccc3)C(=O)C12)c1ccccc1 (stereo not given),3.3%,–,"0.651 µM [falling, single point]"

SMILES,cell number change,AC50 [1],AC50 [2]
COc1ccccc1/C=C/C(=O)NNC(=O)c1cc(C)oc1C,-25%,"0.146 µM [falling, full curve, poor fit]",–
CCCOc1ccc(-c2c(C(=O)N/N=C/c3cccnc3)nnn2-c2nonc2N)cc1,31.7%,"29.1 µM [rising, single point]",–
C[C@@H](NC(=O)c1[nH]cnc1C(=O)Nc1nccs1)c1ccccc1,9.12%,–,"1.16 µM [rising, single point]"
CCc1nc2c(cnn2-c2ccc(Cl)cc2)c(=O)n1-c1ccc2c(c1)OCCO2,36.2%,–,"6.51 µM [rising, partial curve]"
Nc1c(C(=O)CSc2nccn2-c2ccc(Cl)cc2)c(=O)[nH]c(=O)n1C1CC1,-10.8%,–,"0.146 µM [falling, full curve, poor fit]"
O=C(c1cc2c(F)cccc2s1)N1CCCC1,–,–,"29.1 µM [falling, single point]"
C/C(=N\NC(=O)Cc1ccc(Br)cc1)c1cccnc1,7.57%,–,–
C/C(=N/Nc1ccccc1C(=O)O)c1cccs1,4.56%,"0.164 µM [rising, full curve, poor fit]",–
O=S(=O)(NCCS(=O)(=O)N1CCN(c2ccccc2)CC1)c1ccc(F)cc1,102%,"18.4 µM [rising, single point]",–
COC(=O)CN(c1ccccc1[N+](=O)[O-])S(=O)(=O)c1ccccc1,-52.9%,"18.4 µM [falling, partial curve]","8.2 µM [falling, partial curve]"
COc1ccc(CCN2C(=O)c3ccccc3NC2c2cc(Cl)c(O)c(OC)c2)cc1 (stereo not given),-7.14%,–,–
CCOc1ccc(N2C(=O)CC(N3CCN(c4ccccc4OC)CC3)C2=O)cc1 (stereo not given),25.3%,–,"16.4 µM [falling, partial curve, poor fit]"
Cc1c(N(C)CS(=O)(=O)O)c(=O)n(-c2ccccc2)n1C,-37.6%,"23.1 µM [falling, single point]","25.9 µM [falling, single point]"
Cc1cccc(/C=C2\Oc3cc(OS(C)(=O)=O)ccc3C2=O)c1,7.32%,–,–
CCC1CCCCN1CCCNC(=O)C1CCN(c2nnc(-n3cccc3)s2)CC1 (stereo not given),3.3%,–,"29.1 µM [rising, single point]"
Cc1ccccc1-c1nc(CS(=O)(=O)CC(=O)NCCCN2CCN(C)CC2)c(C)o1,2.29%,–,–
Cc1ccc(N2C(=O)c3cccc4c(N5CCN(C)CC5)ccc(c34)C2=O)c2cccnc12,15.9%,–,–
O=C(NC1(Cc2ccccc2)CCN(CCCc2ccccc2)C1=O)c1ccccc1 (stereo not given),-10.5%,–,"16.4 µM [falling, single point]"
O=C(O)CC(=O)Nc1ccc(Oc2ccc(C(F)(F)F)cn2)c(Cl)c1,-35.7%,–,"16.4 µM [falling, single point]"
